{
  "source": "PubChem BioAssay AID595",
  "about": "(National Center for Advancing Translational Sciences (NCATS), 2007)",
  "note": "The campaign covered roughly 71,000 compounds. About 310 (0.44%) were called active. The inconclusive results got no clear call from the source; some entries with a clear call stand among them for comparison. Calls follow the shape of the dose curve; as a rule, active = well fitted curve in either direction with a large enough effect; inconclusive = small, poorly fitted or top-dose-only effect, or another doubt; inactive = flat fitted curve, though single readings scatter. Potencies beside an inconclusive call are fits to weak or partial responses and may not hold up. % is scaled to controls: 0 for no effect and ±100 for the full control effect; potency is read from the fitted curve at half-maximal effect.",
  "data": [
    {"system": "Hsp90 C-terminal peptide / TPR2A (Hop) interaction, human", "experiment": "qHTS Assay for Disrupters of an Hsp90 Co-Chaperone Interaction", "conditions": "AlphaScreen TPR2A-His6 binding biotin-Hsp90 C-terminal peptide; activity change, negative = inhibition: at 57 µM (top of the series) unless noted", "values": [
      {"smiles": "O=C1c2ccccc2-c2onc3ccc(NCCCn4ccnc4)c1c23", "Potency": "active: 25.1 µM"},
      {"smiles": "CCCc1[nH]nc2c1C(c1ccc(OC)c(Cn3nc(C)c(Br)c3C)c1)C(C#N)=C(N)O2", "note": "(stereo not given)", "activity change, negative = inhibition": "inconclusive: -4.96%"},
      {"smiles": "O=C(Nc1ccc(-c2noc(CCc3ccccc3)n2)cc1)c1cccnc1", "activity change, negative = inhibition": "inactive: -7.92%"},
      {"smiles": "CC(=O)Nc1cc(CN2CCCCC2)c(O)c2ncccc12", "Potency": "active: 3.98 µM"},
      {"smiles": "COCCn1c(=O)c(CCc2ccccc2)nc2cnc(OCc3ccccc3)nc21", "Potency": "inconclusive: 31.6 µM [activator, single point]"},
      {"smiles": "CC1CC(C(O)c2ccccn2)C(=O)C(C(O)c2ccccn2)C1", "note": "(stereo not given)", "activity change, negative = inhibition": "inactive: -22.5%"},
      {"smiles": "Cc1cccc(Nc2nn3c(=O)c4ccccc4nc3s2)c1", "activity change, negative = inhibition": "inactive: 5.92%"},
      {"smiles": "O=C(O)CCC(=O)Nc1ccc(C(=O)OC2CCCCC2)cc1", "activity change, negative = inhibition": "inactive: 0.228%"},
      {"smiles": "COc1ccc(N2CCN(CC(=O)Nc3nc4c(s3)CC(C)CC4)CC2)cc1", "note": "(stereo not given)", "Potency": "inconclusive: 31.6 µM [inhibitor, single point]"},
      {"smiles": "Cc1ccc2nsnc2c1S(=O)(=O)Nc1cccc2nsnc12", "activity change, negative = inhibition": "inactive: -8.82%"},
      {"smiles": "N#CC(=NCCO)C1=C(O)c2ccccc2C1=O", "activity change, negative = inhibition": "inactive: -3.35% [at 11 µM]"},
      {"smiles": "COc1ccc(-c2nc3cnc(Nc4ccccc4)nc3n(C[C@H]3CCCO3)c2=O)cc1", "activity change, negative = inhibition": "inactive: -1.26%"},
      {"smiles": "Nc1ccn([C@H]2CC[C@H](CO)O2)c(=O)n1", "activity change, negative = inhibition": "inactive: -4%"},
      {"smiles": "COc1ccccc1N=c1oc2cc(O)ccc2cc1C(=O)NCC1CCCO1", "note": "(stereo not given)", "activity change, negative = inhibition": "inactive: -5.24%"},
      {"smiles": "O=C1CC(c2ccc3c(c2)OCO3)c2cc3c(cc2N1)OCCO3", "note": "(stereo not given)", "activity change, negative = inhibition": "inconclusive: 16.6%"},
      {"smiles": "FC(F)(F)c1ccccc1-c1cncnc1NCc1ccccc1", "activity change, negative = inhibition": "inactive: 1.3%"},
      {"smiles": "CN(C)CCCN1CCC2(CCC(C(C)(C)C)CC2)CC1", "activity change, negative = inhibition": "inactive: -0.265% [at 11 µM]"},
      {"smiles": "COc1ccc(-c2ccc(-c3noc(-c4ccccc4OC)n3)c(OC)n2)cc1", "activity change, negative = inhibition": "inactive: 1.57%"},
      {"smiles": "COc1ccc(C2(C(=O)O)CCCC2)cc1", "activity change, negative = inhibition": "inactive: -4.79%"},
      {"smiles": "O=C(C1CCCN(S(=O)(=O)c2cccc3nonc23)C1)N1CCC(Cc2ccccc2)CC1", "note": "(stereo not given)", "activity change, negative = inhibition": "inactive: -17%"},
      {"smiles": "Oc1c(C(c2ccccn2)N2CCOCC2)ccc2cccnc12", "note": "(stereo not given)", "Potency": "active: 2 µM"},
      {"smiles": "Cc1ccc(-n2nnc3c(=O)n(Cc4cc(C)ccc4C)cnc32)cc1", "activity change, negative = inhibition": "inactive: -3.03%"},
      {"smiles": "N#Cc1nc(COc2ccc(F)cc2)oc1N1CCC(Cc2ccccc2)CC1", "Potency": "inconclusive: 31.6 µM [inhibitor, single point]"},
      {"smiles": "O=C(CN1C(=O)CCC1=O)Nc1nc(-c2ccccn2)cs1", "Potency": "active: 2.51 µM"},
      {"smiles": "COc1ccc(NC(=O)C23CCC(C)(C(=O)O2)C3(C)C)cc1", "note": "(stereo not given)", "activity change, negative = inhibition": "inconclusive: 39.4%"},
      {"smiles": "c1cnc(Oc2ccc3oc4ccccc4c3c2)nc1", "activity change, negative = inhibition": "inconclusive: 83.4%"},
      {"smiles": "COc1ccc(CNC(=O)C2COc3ccccc3O2)cc1", "note": "(stereo not given)", "activity change, negative = inhibition": "inconclusive: 47.1%"},
      {"smiles": "C=CC(C)(O)CCC=C(C)C", "note": "(stereo not given)", "activity change, negative = inhibition": "inactive: -5.01%"},
      {"smiles": "COc1ccc(C(c2sc3nc(C)nn3c2O)N2CCN(Cc3ccccc3)CC2)cc1OC", "note": "(stereo not given)", "activity change, negative = inhibition": "inconclusive: 3.3%"},
      {"smiles": "CCOc1c(OC)cccc1C1CC(=O)Nc2cc3c(cc21)OCCO3", "note": "(stereo not given)", "activity change, negative = inhibition": "inactive: -6.32%"},
      {"smiles": "CC(NC(=O)c1cc(-c2ccc(O)cc2)on1)c1ccccc1", "note": "(stereo not given)", "activity change, negative = inhibition": "inactive: -1.65%"},
      {"smiles": "Cn1c(NC(=O)c2cc(-c3ccc4c(c3)OCO4)nc3ccccc23)cc(=O)n(C)c1=O", "activity change, negative = inhibition": "inactive: 3.31%"},
      {"smiles": "CCOC(=O)c1c(NC(=O)c2cccs2)sc2c1CCCC2", "activity change, negative = inhibition": "inactive: 10.7%"},
      {"smiles": "CCOC(=O)NC1CCS(=O)(=O)C1", "note": "(stereo not given)", "activity change, negative = inhibition": "inconclusive: 48.2%"},
      {"smiles": "COc1cccc(Nc2ncc3nc(C)c(=O)n(CCC#N)c3n2)c1", "activity change, negative = inhibition": "inactive: -5.28%"},
      {"smiles": "CCOc1ccc(S(=O)(=O)Nc2cccc(C(=O)N3CCN(c4ccc(OC)cc4)CC3)c2)cc1", "activity change, negative = inhibition": "inactive: -13.8%"},
      {"smiles": "COc1ccc(-c2ccc(-c3noc(C)n3)c(OC)n2)cc1", "activity change, negative = inhibition": "inactive: 0.817%"},
      {"smiles": "O=C(CC(=O)NCc1cccnc1)NCc1cccnc1", "activity change, negative = inhibition": "inconclusive: 41.7%"},
      {"smiles": "Cc1ccccc1N1CCN(S(=O)(=O)C[C@@]23CC[C@H](C[C@H]2NC(=O)[C@@H](N)CCS(C)(=O)=O)C3(C)C)CC1", "activity change, negative = inhibition": "inactive: -8.53%"},
      {"smiles": "c1csc(CSc2nnc3sc4ccccc4n23)c1", "activity change, negative = inhibition": "inconclusive: 63.1%"},
      {"smiles": "COc1cccc(-c2cc3nc4c(c(N5CCC6(CC5)OCCO6)n3n2)CCCC4)c1", "Potency": "inconclusive: 25.1 µM [activator, single point]"},
      {"smiles": "CC(=O)c1c(C)[nH]c(C(=O)OCc2nnc(-c3ccccc3)o2)c1C", "activity change, negative = inhibition": "inactive: -0.625%"},
      {"smiles": "CCNCC(O)COCC(O)CNCC", "note": "(stereo not given)", "activity change, negative = inhibition": "inconclusive: 48.1%"},
      {"smiles": "CCC1CCCCN1C(=O)Cn1c(=O)oc2ccccc21", "note": "(stereo not given)", "activity change, negative = inhibition": "inconclusive: 39.1%"},
      {"smiles": "COc1ccc2c(c1)c(C(=O)CN1CCC3(CC1)OCCO3)c(C)n2C", "activity change, negative = inhibition": "inconclusive: 43.9%"}
    ]}
  ]
}
